Binding data for 1 molecule are collected here from US20220033904A1.

For assay [1], the target named is T1, USP8 (also called UBPy) (human) (UniProt P40818).
T1 sequence (looked up): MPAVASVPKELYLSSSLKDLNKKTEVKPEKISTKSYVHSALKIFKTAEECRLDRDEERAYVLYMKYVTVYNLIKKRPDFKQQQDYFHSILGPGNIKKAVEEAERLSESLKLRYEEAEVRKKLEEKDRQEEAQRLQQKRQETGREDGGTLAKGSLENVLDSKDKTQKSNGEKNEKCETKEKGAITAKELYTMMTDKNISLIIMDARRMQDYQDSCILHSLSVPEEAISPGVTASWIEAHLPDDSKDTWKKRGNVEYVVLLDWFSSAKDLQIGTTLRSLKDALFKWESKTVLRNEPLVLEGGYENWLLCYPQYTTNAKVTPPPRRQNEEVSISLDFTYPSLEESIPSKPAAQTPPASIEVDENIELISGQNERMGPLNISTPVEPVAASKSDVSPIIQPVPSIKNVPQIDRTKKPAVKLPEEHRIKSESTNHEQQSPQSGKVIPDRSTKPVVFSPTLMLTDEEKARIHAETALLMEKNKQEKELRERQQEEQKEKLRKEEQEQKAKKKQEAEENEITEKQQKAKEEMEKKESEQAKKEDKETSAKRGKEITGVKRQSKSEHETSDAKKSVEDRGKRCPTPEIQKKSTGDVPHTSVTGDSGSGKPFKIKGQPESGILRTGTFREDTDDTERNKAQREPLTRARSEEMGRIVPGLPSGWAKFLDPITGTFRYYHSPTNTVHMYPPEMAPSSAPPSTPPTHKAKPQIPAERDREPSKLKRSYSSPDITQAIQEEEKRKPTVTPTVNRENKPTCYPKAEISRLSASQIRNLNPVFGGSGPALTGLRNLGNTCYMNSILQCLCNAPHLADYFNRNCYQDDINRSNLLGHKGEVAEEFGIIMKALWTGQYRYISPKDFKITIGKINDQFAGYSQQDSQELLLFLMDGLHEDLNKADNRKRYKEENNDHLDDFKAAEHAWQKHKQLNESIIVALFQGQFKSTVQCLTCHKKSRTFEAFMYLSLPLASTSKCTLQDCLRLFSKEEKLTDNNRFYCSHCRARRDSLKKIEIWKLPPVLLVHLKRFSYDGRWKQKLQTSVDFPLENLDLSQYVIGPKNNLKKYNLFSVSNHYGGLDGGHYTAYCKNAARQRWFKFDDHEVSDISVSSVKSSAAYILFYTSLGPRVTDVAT
Description: tandem affinity purification and mass spectrometry (FIG. 11A).

The target of assay [2] is T1, USP8 (also called UBPy) (human). Description: tandem affinity purification (Flag then Myc) and mass spectrometry (FIG. 11A).

Results are given in words; binding and its absence hold for the method and conditions named. In cells and extracts the contact can be indirect. These calls come from enrichment with a bait or labelling near it, and not all partners need be listed. Tags and fused reporters may be left off the sequences shown.

B1: TMEM79-Myc-Flag (protein, not shown: small tags and cut ends)
chain: MTEPETLALLDMKEPETPEKSPPQALVLQSEEEGGTESPGTESLRVGSSVGSPIVREGPEDGPDSTISEAATLPWGTDPHPSAPLPDPPGWRDIEPEPLESEAPTKSEEPFKEDANLLPEKTVRAFVPIDLQCIERKPQEERILHRDAGPGELRNFLPARLSHPEPPERKWAEAVVRPPGRSCGGCGSCGGREALRAVASVVAALIFFPCLLYGAYAFLPFDAPRLPTMSSRLVYTLRCGVFATFPIVLGLLVYGLSLLCFSALRPFGEPRREVEIHRQYVAQSVQLFILYFFNLAVLSTYLPQDTLKLLPLLTGLFAISRLIYWLTFAVGRSFRGFGYGLTFLPLLAMLVWNLYYMFVVEPERMLTASESRLDYPDHARSVSDYRPRSWG
For B1, the binding result in assay [1] and in assay [2] was “binds” throughout.
